In all, about 360,000 compounds went through this assay and about 7,500 (2.1%) were called active. This list was built around the results that the source calls inconclusive (neither active nor inactive); the mix of calls is not that of the screen. Calls come from the whole dose curve; as a rule, active = well fitted inhibition curve with a large enough effect; inconclusive = small, poorly fitted or top-dose-only effect, or effect the other way; inactive = flat fitted curve, though single readings scatter. Potencies of inconclusive entries are doubtful fits and often do not repeat.
Experiment: Nrf2 qHTS screen for inhibitors; note: nearly all actives have a fitted effect of over 60% in size
Conditions: A549 ARE-Fluc reporter, luciferase luminescence, 18-24 h; activity change, negative = inhibition: at 46 µM (top of the series)
How it was run: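 Reporter: ARE-Fluc in A549. Exposure: 18-24 h, 37 °C, 5% CO2, 5% FBS OPTI-MEM. Readouts: fluorescent cytotoxicity (CellTiter-Fluor), then luminescent Nrf2 signal after BugLite.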
% is set by controls: 0 for no effect and ±100 for the full control effect; potency is the fitted concentration of half-maximal effect.

Structure (SMILES)	activity change, negative = inhibition	Potency
CC1(C)Cc2c(c(N3CCOCC3)nc3snc(N)c23)CO1	inactive: -21.9%	
Cc1cc(C)n2c(Nc3ccc4c(c3)OCCO4)c(-c3ccc(Cl)cc3)nc2n1		inconclusive: 11.6 µM [falling, partial curve, poor fit]
COC(=O)Cc1cc(=O)n2[nH]c(SC)nc2n1	inactive: -1.73%	
Cc1cc2cc(CCNC(=O)c3ccc(C)c([N+](=O)[O-])c3)c(=O)[nH]c2cc1C		inconclusive: 20.6 µM [falling, single point]
CCn1c(C)cc(/C=C2/SC(=O)N(C(C)C(=O)OC)C2=O)c1C (stereo unspecified)		inconclusive: 7.31 µM [activator, partial curve]
CC(=O)Nc1ccc(NC(=O)C(=O)c2cn(CC(=O)N3CCCCC3)c3ccccc23)cc1		inconclusive: 29.1 µM [falling, single point]
c1coc(CNc2nc(-c3cccs3)cs2)c1		inconclusive: 23.1 µM [activator, single point]
O=C(CN1CCN(c2ccc(C(F)(F)F)cn2)CC1)NCc1ccc2c(c1)OCO2		inconclusive: 29.1 µM [falling, single point]
Cc1ccccc1NC(=O)NCCCN1CCN(c2ccccc2F)CC1		inconclusive: 10.3 µM [activator, partial curve, poor fit]
O=C(O)CCCN1C(=O)c2ccc(Oc3cccc([N+](=O)[O-])c3)cc2C1=O		inconclusive: 8.2 µM [falling, partial curve]
O=C(CS(=O)(=O)Nc1ccc(F)cc1Cl)Nc1ccc(F)cc1Cl		inconclusive: 23.1 µM [falling, partial curve, poor fit]
CCN(Cc1ccccc1)c1ccc(/C=N/N2CCOCC2)cc1		inconclusive: 29.1 µM [activator, single point]
COC(=O)CCC(NC(=O)OCc1ccccc1)C(=O)NC(CC(C)C)C(=O)OC (stereo unspecified)	inactive: 2.08%	
Cc1cc(C(=O)N2CCN(c3ccc([N+](=O)[O-])cc3)CC2)c(C)o1		inconclusive: 23.1 µM [falling, partial curve, poor fit]
CCOc1ccc(NC(=O)CCN2CCN(S(=O)(=O)c3ccc(OC)cc3)CC2)cc1		inconclusive: 20.6 µM [falling, single point]
Cc1ccc(C(=O)c2cn(Cc3cccc(C)c3)c3nc(C)ccc3c2=O)cc1	inactive: -18.6%	
CCCCn1c(SCc2ccc(C(=O)OC)o2)nc2cc(S(N)(=O)=O)ccc21		active: 16.4 µM
CC(C)Oc1ccc(C(=O)Nc2cc(S(=O)(=O)N3CCOCC3)ccc2N2CCOCC2)cc1		inconclusive: 2.31 µM [falling, partial curve, poor fit]
Cc1ccc(NC(=O)CSc2ncc(S(=O)(=O)c3ccc(C(C)C)cc3)c(=O)[nH]2)cc1C		inconclusive: 16.4 µM [activator, partial curve]
CC(C)Oc1ccc(CNS(=O)(=O)c2ccc3c(c2)C(C)(C)C(=O)N3C)cc1	inactive: 19.3%	
CCOc1ccccc1CN(CCc1ccc2c(c1)OCO2)Cc1ccccn1		inconclusive: 14.6 µM [falling, partial curve, poor fit]

Looked up above.
In Potency, `CC(C)Oc1ccc(C(=O)Nc2cc(S(=O)(=O)N3CCOCC3)ccc2N2CCOCC2)cc1` has the entry inconclusive: 2.31 µM [falling, partial curve, poor fit]
In Potency, `Cc1cc2cc(CCNC(=O)c3ccc(C)c([N+](=O)[O-])c3)c(=O)[nH]c2cc1C` has the entry inconclusive: 20.6 µM [falling, single point]

The list continues.

Structure (SMILES)	activity change, negative = inhibition	Potency
O=C(CSc1n[nH]c(=O)n1Cc1ccccc1)Nc1ccc(N2CCOCC2)cc1		inconclusive: 25.9 µM [falling, partial curve, poor fit]
O=C(O)c1ccc(N=Nc2c(-c3ccccc3)[nH]oc2=O)cc1		inconclusive: 8.2 µM [activator, partial curve]
COc1ccc(CNC(=O)CCCn2nc(C)c3sc4ccccc4c3c2=O)cc1OC		inconclusive: 20.6 µM [activator, partial curve]
C=CCNC(=S)Nc1ccc(N(C)C)cc1		inconclusive: 10.3 µM [activator, partial curve, poor fit]
CC(C)(C)c1ccc(C(=O)Nc2ccccc2Cl)cc1		inconclusive: 0.651 µM [activator, full curve, poor fit]
Cc1ccc2c(CC(=O)Nc3ccc(S(=O)(=O)N4CCCCC4C)cc3)coc2c1 (stereo unspecified)		inconclusive: 23.1 µM [falling, partial curve]
Cc1ccc(NC(=O)CCC(=O)c2cccs2)nc1		inconclusive: 18.4 µM [activator, single point]
O=C(c1cc(=O)c2ccccc2o1)N1CCN(c2ccccc2F)CC1		inconclusive: 9.2 µM [falling, partial curve, poor fit]
COCCN(C(=O)COC(=O)c1oc2ccc(OC)cc2c1C)c1c(N)n(Cc2ccccc2)c(=O)[nH]c1=O	inactive: 0.436%	
O=C(NNc1ncc(C(F)(F)F)cc1Cl)c1c(Cl)cccc1Cl		inconclusive: 2.91 µM [falling, full curve, poor fit]
Cc1ccc(N/C=C/c2onc(C)c2[N+](=O)[O-])cc1		inconclusive: 32.6 µM [activator, partial curve, poor fit]
Cn1c(SCC(=O)NCCc2ccccc2)ncc(C(=O)Nc2ccc(F)cc2)c1=O		inconclusive: 2.59 µM [activator, full curve, poor fit]
C=CCNCC(=O)N1N=C(c2ccc3ccccc3c2)CC1c1ccc(OC)cc1 (stereo unspecified)	inactive: 22%	
Cc1cc(C)c2nc(N3CCC(C(=O)N4CCN(C(=O)c5ccco5)CC4)CC3)sc2c1		inconclusive: 29.1 µM [falling, single point]
CN(C)c1ccc(C(CNC(=O)COc2ccc(Cl)cc2)N2CCCC2)cc1 (stereo unspecified)	inactive: -9.62%	
COc1ccc2sc(-c3ccccc3OC)c(C#Cc3cncn3C)c2c1		inconclusive: 16.4 µM [activator, partial curve, poor fit]
O=C(c1ccccc1)N1CCN(C(=O)c2cc3nc(-c4ccccc4)cc(C(F)(F)F)n3n2)CC1		active: 25.9 µM
CCCN1CCN(C(=O)Cn2c(-c3cccs3)cc3ccccc32)CC1	inactive: 17.1%	
COc1ccc(-c2nnc3ccc(SC(C)C)nn23)cc1OC		inconclusive: 6.51 µM [falling, partial curve, poor fit]
CCCCOc1ccc(C2=NC(c3cccs3)=Nc3ccc(CC)cc3N2)cc1		inconclusive: 20.6 µM [falling, partial curve]
